Source: PMC9818633
No constants are given. Whether binding was seen depends on the method and setting. Binding seen in cells or lysates may run through a third protein. Some results given as binding are weak or reduced against the parent protein; the word gives no strength. Sequences can lack the tags named with a protein.

Sequences of proteins named here, by UniProt entry; tags and fusion partners are left off.
UniProt P68400: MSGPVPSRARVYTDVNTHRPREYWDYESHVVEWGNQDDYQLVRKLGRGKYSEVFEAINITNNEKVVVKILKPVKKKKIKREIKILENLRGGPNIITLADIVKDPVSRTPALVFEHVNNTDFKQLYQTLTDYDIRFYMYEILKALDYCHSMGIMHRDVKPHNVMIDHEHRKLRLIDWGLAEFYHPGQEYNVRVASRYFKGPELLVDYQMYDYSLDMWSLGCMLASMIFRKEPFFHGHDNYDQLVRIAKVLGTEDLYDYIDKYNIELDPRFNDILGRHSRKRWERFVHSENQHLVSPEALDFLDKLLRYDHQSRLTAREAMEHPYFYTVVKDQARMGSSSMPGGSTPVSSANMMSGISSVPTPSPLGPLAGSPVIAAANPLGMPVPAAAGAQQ

Target: T1, FLAG-tagged USP13 (Ubiquitin-specific Peptidase 13), wild type (human) (UniProt Q92995)
T1 sequence: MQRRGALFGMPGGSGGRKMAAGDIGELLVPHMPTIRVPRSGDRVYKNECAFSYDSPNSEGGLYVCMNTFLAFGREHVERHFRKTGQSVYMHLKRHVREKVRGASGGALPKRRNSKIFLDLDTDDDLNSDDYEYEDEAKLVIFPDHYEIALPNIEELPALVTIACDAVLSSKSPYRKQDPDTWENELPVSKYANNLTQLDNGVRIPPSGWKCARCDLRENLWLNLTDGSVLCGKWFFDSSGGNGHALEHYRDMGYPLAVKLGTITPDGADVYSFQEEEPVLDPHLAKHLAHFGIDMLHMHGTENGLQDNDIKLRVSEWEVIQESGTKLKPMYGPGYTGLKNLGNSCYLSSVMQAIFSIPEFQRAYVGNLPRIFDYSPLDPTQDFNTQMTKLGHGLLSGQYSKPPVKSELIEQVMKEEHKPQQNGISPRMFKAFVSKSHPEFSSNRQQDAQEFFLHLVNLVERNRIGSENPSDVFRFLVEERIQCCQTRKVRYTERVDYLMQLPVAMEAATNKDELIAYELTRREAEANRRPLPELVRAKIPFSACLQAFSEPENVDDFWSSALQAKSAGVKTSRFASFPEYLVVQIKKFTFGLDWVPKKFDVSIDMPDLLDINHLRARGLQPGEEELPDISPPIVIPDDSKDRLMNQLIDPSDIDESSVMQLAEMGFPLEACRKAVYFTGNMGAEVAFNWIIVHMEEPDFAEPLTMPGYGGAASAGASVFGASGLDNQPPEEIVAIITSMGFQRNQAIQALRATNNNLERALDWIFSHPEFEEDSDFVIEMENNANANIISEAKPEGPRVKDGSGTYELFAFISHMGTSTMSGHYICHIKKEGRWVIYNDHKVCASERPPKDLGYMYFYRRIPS
Test: co-IP; HeyA8 cells transfected with FLAG-USP13; lysate (1 mg) in IP buffer (1% NP-40, 50 mM Tris-HCl, 500 mM NaCl, 5 mM EDTA) incubated overnight at 4 °C with anti-FLAG M2 antibody or normal IgG, Protein A-Sepharose beads; western blot with anti-CK2α antibody

binding: binds
Substance: Casein kinase 2 (CK2), catalytic subunit alpha (CK2α) (from UniProt P68400 1-391) (enzyme)
